pIC50: −log10 of the molar value. Some results were stated once for a whole list of compounds, not compound by compound.
Columns and labels:
Capan-1 (K-Ras G12V) = test: CellTiter-Glo cell viability assay, Capan-1; format: cell-based, human; conditions: 5-day treatment, Capan-1 versus A375
K-RasG12V = K-RasG12V (Homo sapiens, UniProt P01116+P62937, G12V); test: Disruption of BRAF RBD interaction with K-Ras (TR-FRET / MOA assay), K-RasG12V; format: biochemical; conditions: TR-FRET with cyclophilin A and GST-BRAF RBD, read-out: IC50 with respect to K-RasG12V (disruption of BRAF RBD interaction)

Amino acid sequences for entries named in this document (tags omitted). A change or cut given only in a name is not applied to a line headed by its entry. Residues count along the entry.
UniProt P01116, 1-188 isoform P01116-2 G12V: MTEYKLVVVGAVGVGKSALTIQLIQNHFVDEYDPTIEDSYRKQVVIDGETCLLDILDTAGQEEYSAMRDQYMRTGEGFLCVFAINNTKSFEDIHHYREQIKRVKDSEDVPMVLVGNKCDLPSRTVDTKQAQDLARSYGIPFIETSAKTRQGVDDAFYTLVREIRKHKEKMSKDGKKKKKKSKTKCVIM
UniProt P62937, whole entry: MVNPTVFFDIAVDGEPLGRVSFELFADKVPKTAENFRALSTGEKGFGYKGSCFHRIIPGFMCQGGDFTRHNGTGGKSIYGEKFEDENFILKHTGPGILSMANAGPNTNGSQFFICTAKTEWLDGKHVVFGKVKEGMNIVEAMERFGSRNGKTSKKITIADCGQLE

| SMILES | decrease in cell viability with respect to KRAS G12V (Capan-1) versus wild-type KRAS (A375) (Capan-1 (K-Ras G12V)) | pIC50 (K-RasG12V) |
| --- | --- | --- |
| CO[C@@H](C)c1ncc(C2CCN(C3CC3)CC2)cc1-c1c2c3cc(ccc3n1CCO[C@H]1CCOC(C)(C)C1)-c1csc(n1)[C@@H](N1CC3(CCC3)C1)[C@H](NC(=O)[C@H]1[C@H](C)[C@@H]1C)C(=O)N1CCC[C@H](N1)C(=O)OCC(C)(C)C2 (racemic) [Example A269] | greater decrease in cell viability | > 6.00 |
| CO[C@@H](C)c1ncc(C2CCN(C3CC3)CC2)cc1-c1c2c3cc(ccc3n1CCOC1CCOCC1)-c1csc(n1)[C@@H](N1CC3(CCC3)C1)[C@H](NC(=O)[C@H]1[C@H](C)[C@@H]1C)C(=O)N1CCC[C@H](N1)C(=O)OCC(C)(C)C2 (racemic) [Example A270] | greater decrease in cell viability | > 6.00 |
| CO[C@@H](C)c1ncc(C2CCN(C3CC3)CC2)cc1-c1c2c3cc(ccc3n1CCOC1CCOCC1)-c1csc(n1)[C@@H](N1CC3(CCC3)C1)[C@H](NC(=O)N1CC[C@H]1C)C(=O)N1CCC[C@H](N1)C(=O)OCC(C)(C)C2 (racemic) [Example A273] | greater decrease in cell viability | > 6.00 |
| CO[C@@H](C)c1ncc(C2CCN(C3CC3)CC2)cc1-c1c2c3cc(ccc3n1CCOC1CCOCC1)-c1csc(n1)[C@@H](N1CC3(CCC3)C1)[C@H](NC(=O)C13CC(C1)[C@H](C)O3)C(=O)N1CCC[C@H](N1)C(=O)OCC(C)(C)C2 (racemic) [Example A275] | greater decrease in cell viability | > 6.00 |
| CO[C@@H](C)c1ncc(C2CCN(C3CC3)CC2)cc1-c1c2c3cc(ccc3n1CCO[C@H]1CCOC(C)(C)C1)-c1csc(n1)[C@@H](N1CCCC1)[C@H](NC(=O)C13CC(C1)[C@H](C)O3)C(=O)N1CCC[C@H](N1)C(=O)OCC(C)(C)C2 (racemic) [Example A276] | greater decrease in cell viability | > 6.00 |
| CO[C@@H](C)c1ncc(C2CCN(C3CC3)CC2)cc1-c1c2c3cc(ccc3n1CCOC1CCOCC1)-c1csc(n1)[C@@H](N1CCCC1)[C@H](NC(=O)C13CC(C1)[C@H](C)O3)C(=O)N1CCC[C@H](N1)C(=O)OCC(C)(C)C2 (racemic) [Example A277] | greater decrease in cell viability | > 6.00 |
| CO[C@@H](C)c1ncccc1-c1c2c3cc(ccc3n1CCO[C@H]1CCOC(C)(C)C1)-c1coc(n1)[C@@H](N1CC3(COC3)C1)[C@H](NC(=O)C13CC(C1)[C@H](C)O3)C(=O)N1CCC[C@H](N1)C(=O)OCC(C)(C)C2 (racemic) [Example A279] | greater decrease in cell viability | > 6.00 |
| CO[C@@H](C)c1ncc(N2CCN(C3CC3)CC2)cc1-c1c2c3cc(ccc3n1CCO[C@H]1CCOC(C)(C)C1)-c1coc(n1)[C@@H](N1CC3(COC3)C1)[C@H](NC(=O)[C@@H]1[C@@H](C)[C@H]1c1ccncn1)C(=O)N1N[C@H](C(=O)OCC(C)(C)C2)C2CC1C2 (racemic) [Example A280] | greater decrease in cell viability | > 6.00 |
| CO[C@@H](C)c1ncc(N2CCN(C3CC3)CC2)cc1-c1c2c3cc(ccc3n1CCO[C@H]1CCOC(C)(C)C1)-c1coc(n1)[C@@H](N1CC3(COC3)C1)[C@H](NC(=O)[C@@H]1[C@@H](C)[C@H]1c1ccccn1)C(=O)N1N[C@H](C(=O)OCC(C)(C)C2)C2CC1C2 (racemic) [Example A281] | greater decrease in cell viability | > 6.00 |
| CO[C@@H](C)c1ncc(N2CCN(C3CC3)CC2)cc1-c1c2c3cc(ccc3n1CCO[C@H]1CCOC(C)(C)C1)-c1csc(n1)[C@@H](N1CC3(COC3)C1)[C@H](NC(=O)N1CC[C@H]1C)C(=O)N1N[C@H](C(=O)OCC(C)(C)C2)C2CC1C2 (racemic) [Example A282] | greater decrease in cell viability | > 6.00 |
| CO[C@@H](C)c1ncccc1-c1c2c3cc(ccc3n1CC(F)(F)F)-c1csc(n1)[C@@H](N1CC3(CCC3)C1)[C@H](NC(=O)C13CC(C1)[C@H](C)O3)C(=O)N1CCC[C@H](N1)C(=O)OCC(C)(C)C2 (racemic) [Example A283] | greater decrease in cell viability | > 6.00 |
| CO[C@@H](C)c1ncccc1-c1c2c3cc(ccc3n1C1CN(C)C1)-c1csc(n1)[C@@H](N1CC3(CCC3)C1)[C@H](NC(=O)C13CC(C1)[C@H](C)O3)C(=O)N1CCC[C@H](N1)C(=O)OCC(C)(C)C2 (racemic) [Example A284] | greater decrease in cell viability | > 6.00 |
| CO[C@@H](C)c1ncccc1-c1c2c3cc(ccc3n1C1CN(C)C1)-c1csc(n1)[C@@H](N1CC3(COC3)C1)[C@H](NC(=O)C13CC(C1)[C@H](C)O3)C(=O)N1CCC[C@H](N1)C(=O)OCC(C)(C)C2 (racemic) [Example A285] | greater decrease in cell viability | > 6.00 |
| CO[C@@H](C)c1ncccc1-c1c2c3cc(ccc3n1C1COC1)-c1csc(n1)[C@@H](N1CC3(CCC3)C1)[C@H](NC(=O)C13CC(C1)[C@H](C)O3)C(=O)N1CCC[C@H](N1)C(=O)OCC(C)(C)C2 (racemic) [Example A286] | greater decrease in cell viability | > 6.00 |
| CO[C@@H](C)c1ncccc1-c1c2c3cc(ccc3n1C1COC1)-c1csc(n1)[C@@H](N1CC3(COC3)C1)[C@H](NC(=O)C13CC(C1)[C@H](C)O3)C(=O)N1CCC[C@H](N1)C(=O)OCC(C)(C)C2 (racemic) [Example A287] | greater decrease in cell viability | > 6.00 |
| CO[C@@H](C)c1ncc(N2CCN(C3CC3)CC2)cc1-c1c2c3cc(ccc3n1CCO[C@H]1CCOC(C)(C)C1)-c1csc(n1)[C@@H](N1CC3(COC3)C1)[C@H](NC(=O)N1CC[C@H]1C)C(=O)N1CC3CC(C3)(N1)C(=O)OCC(C)(C)C2 (racemic) [Example A288] | greater decrease in cell viability | > 6.00 |
| CO[C@@H](C)c1ncc(N2CCN(C3CC3)CC2)cc1-c1c2c3cc(ccc3n1CCO[C@H]1CCOC(C)(C)C1)-c1csc(n1)[C@@H](N1CC3CC1C3)[C@H](NC(=O)C13CC(C1)[C@H](C)O3)C(=O)N1CC3CC(C3)(N1)C(=O)OCC(C)(C)C2 (racemic) [Example A289] | greater decrease in cell viability | > 6.00 |
| CO[C@@H](C)c1ncc(N2CCN(C3CC3)CC2)cc1-c1c2c3cc(ccc3n1CCO[C@H]1CCOC(C)(C)C1)-c1csc(n1)[C@@H](N1CCCC1)[C@H](NC(=O)[C@@H]1OC[C@@H]1C)C(=O)N1CC3CC(C3)(N1)C(=O)OCC(C)(C)C2 (racemic) [Example A290] | greater decrease in cell viability | > 6.00 |
| CO[C@@H](C)c1ncc(C2CCN(C3CC3)CC2)cc1-c1c2c3cc(ccc3n1CCO[C@H]1CCOC(C)(C)C1)-c1csc(n1)[C@@H](N1CCCC1)[C@H](NC(=O)C13CC(C1)[C@H](C)O3)C(=O)N1NC(C(=O)OCC(C)(C)C2)C2CC1C2 (mixture of isomers) [Example A292] | greater decrease in cell viability | > 6.00 |
| CO[C@@H](C)c1ncccc1-c1c2c3cc(ccc3n1C1CS(=O)(=O)C1)-c1csc(n1)[C@@H](N1CC3(COC3)C1)[C@H](NC(=O)[C@H]1OC[C@@H]1C)C(=O)N1CC3CC(C3)(N1)C(=O)OCC(C)(C)C2 (racemic) [Example A293] | greater decrease in cell viability | > 6.00 |
| CO[C@@H](C)c1ncccc1-c1c2c3cc(ccc3n1C1COC1)-c1csc(n1)[C@@H](N1CC3(COC3)C1)[C@H](NC(=O)[C@@H]1[C@@H](C)[C@H]1[C@H]1CCCO1)C(=O)N1CC3CC(C3)(N1)C(=O)OCC(C)(C)C2 (racemic) [Example A294] | greater decrease in cell viability | > 6.00 |
| CO[C@@H](C)c1ncc(N2CCN(C3CC3)CC2)cc1-c1c2c3cc(ccc3n1CCO[C@H]1CCOC(C)(C)C1)-c1csc(n1)[C@@H](N1CC(C)(C)C1)[C@H](NC(=O)[C@H]1OC[C@@H]1C)C(=O)N1CCCC(N1)C(=O)OCC(C)(C)C2 (mixture of isomers) [Example A295] | greater decrease in cell viability | > 6.00 |
| CO[C@@H](C)c1ncc(N2CCN(C3CC3)CC2)cc1-c1c2c3cc(ccc3n1CCO[C@H]1CCOC(C)(C)C1)-c1csc(n1)[C@@H](N1CCCC1)[C@H](NC(=O)[C@H]1OC[C@@H]1C)C(=O)N1CC3CC(C3)(N1)C(=O)OCC(C)(C)C2 (racemic) [Example A296] | greater decrease in cell viability | > 6.00 |
| COC1CN([C@@H]2c3nc(cs3)-c3ccc4c(c3)c(c(-c3cc(N5CCN(C6CC6)CC5)cnc3[C@H](C)OC)n4CCOC3CCOCC3)CC(C)(C)COC(=O)C3CCCN(N3)C(=O)[C@H]2NC(=O)[C@H]2OC[C@@H]2C)C1 (mixture of isomers) [Example A297] | greater decrease in cell viability | > 6.00 |
| CO[C@@H](C)c1ncccc1-c1c2c3cc(ccc3n1CCO[C@H]1CCOC(C)(C)C1)-c1csc(n1)[C@@H](N1CCCC1)[C@H](NC(=O)[C@H]1[C@H](C)[C@@H]1C)C(=O)N1CCCC(N1)C(=O)OCC(C)(C)C2 (mixture of isomers) [Example A298] | greater decrease in cell viability | > 6.00 |
